Laboratory results reported in PubChem BioAssay AID651768 (National Center for Advancing Translational Sciences (NCATS), 2012).
In all, about 360,000 compounds went through this assay and about 1,700 (0.47%) were called active. The shares of active, inactive and inconclusive entries below differ from those in the screen. Calls follow the shape of the dose curve; as a rule, active = well fitted inhibition curve with a large enough effect; inconclusive = small, poorly fitted or top-dose-only effect; inactive = no such curve, though single readings can be large or run the other way. Potencies beside an inconclusive call are fits to weak or partial responses and may not hold up.

By UniProt entry, the sequences of proteins in these tests, tags left out.
UniProt Q14191, whole entry, looked up: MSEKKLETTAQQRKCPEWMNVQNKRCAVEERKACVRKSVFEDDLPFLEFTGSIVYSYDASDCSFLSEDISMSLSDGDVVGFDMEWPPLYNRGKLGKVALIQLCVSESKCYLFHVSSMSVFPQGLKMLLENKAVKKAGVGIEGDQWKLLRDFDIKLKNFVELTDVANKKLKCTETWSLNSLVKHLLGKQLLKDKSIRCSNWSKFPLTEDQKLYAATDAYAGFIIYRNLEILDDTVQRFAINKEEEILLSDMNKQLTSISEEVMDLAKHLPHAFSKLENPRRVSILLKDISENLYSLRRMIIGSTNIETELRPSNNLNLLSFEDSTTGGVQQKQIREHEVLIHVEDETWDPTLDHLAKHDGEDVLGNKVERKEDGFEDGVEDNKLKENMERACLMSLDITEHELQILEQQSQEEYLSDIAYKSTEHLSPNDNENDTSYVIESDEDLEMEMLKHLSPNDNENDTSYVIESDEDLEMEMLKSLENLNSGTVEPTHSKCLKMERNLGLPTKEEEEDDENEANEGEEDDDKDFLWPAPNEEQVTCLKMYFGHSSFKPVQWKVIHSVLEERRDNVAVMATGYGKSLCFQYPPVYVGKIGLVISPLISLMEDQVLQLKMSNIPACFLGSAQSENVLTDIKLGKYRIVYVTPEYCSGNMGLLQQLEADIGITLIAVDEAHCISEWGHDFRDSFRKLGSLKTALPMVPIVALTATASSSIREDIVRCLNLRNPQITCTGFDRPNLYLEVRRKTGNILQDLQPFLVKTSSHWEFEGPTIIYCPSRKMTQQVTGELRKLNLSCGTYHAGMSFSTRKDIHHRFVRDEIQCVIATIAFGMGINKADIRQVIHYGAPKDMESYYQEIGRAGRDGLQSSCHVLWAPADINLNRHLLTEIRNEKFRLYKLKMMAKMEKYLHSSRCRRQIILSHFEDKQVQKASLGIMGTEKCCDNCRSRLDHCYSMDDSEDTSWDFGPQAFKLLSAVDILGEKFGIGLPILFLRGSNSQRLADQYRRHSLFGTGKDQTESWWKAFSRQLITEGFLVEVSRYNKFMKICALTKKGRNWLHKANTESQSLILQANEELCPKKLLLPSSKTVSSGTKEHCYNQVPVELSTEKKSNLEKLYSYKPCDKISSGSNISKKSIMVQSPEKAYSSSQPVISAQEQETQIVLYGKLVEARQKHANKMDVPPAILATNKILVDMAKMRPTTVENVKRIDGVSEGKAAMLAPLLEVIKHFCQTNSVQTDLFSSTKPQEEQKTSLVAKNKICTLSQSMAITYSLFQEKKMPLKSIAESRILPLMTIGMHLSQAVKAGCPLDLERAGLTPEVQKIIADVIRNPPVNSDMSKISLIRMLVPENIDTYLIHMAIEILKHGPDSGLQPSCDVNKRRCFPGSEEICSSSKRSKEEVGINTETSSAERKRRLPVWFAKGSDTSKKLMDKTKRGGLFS

What follows are molecules tested against Bifunctional 3'-5' exonuclease/ATP-dependent helicase WRN (Homo sapiens) (UniProt Q14191) (assay: qHTS for Inhibitors of WRN Helicase). Settings: WRN helicase unwinding, fluorescent forked duplex, kinetic; activity change, negative = inhibition: at 114 µM (top of the series) unless noted.
Outline: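 WRN at 20 nM final preincubated with compound 15 min at room temperature; reaction started with 100 nM fluorophore/quencher forked duplex oligonucleotide and 2 mM ATP final. Unwinding followed kinetically by red fluorescence (ex 525, em 598 nm).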
% is scaled to controls: 0 for no effect and ±100 for the full control effect; potency is read from the fitted curve at half-maximal effect.
Also: nearly all actives have a fitted effect of over 55% in size.

Row | SMILES | activity change, negative = inhibition | Potency
1 | Cc1cc(C)cc(N(CC(=O)NC2CCCCC2)C(=O)c2ccc(C)s2)c1 | inactive: -0.457% | –
2 | CCCCNc1c(-c2ccc(SC(C)CC)cc2)nc2cnccn12 (stereo not given) | – | inconclusive: 89.1 µM [inhibitor, single point]
3 | COc1ccc(-n2c(C)cc(C(=O)CSc3nn4c(=O)c(C(C)(C)C)nnc4s3)c2C)cc1 | inactive: 4.55% | –
4 | O=C1NN(c2cccc(Br)c2)C(=O)/C1=C\c1ccccc1 | – | inconclusive: 56.2 µM [inhibitor, partial curve]
5 | O=S(=O)(c1ccc(Cl)c(C(F)(F)F)c1)N1CCN(CC(O)COc2ccccc2F)CC1 (stereo not given) | – | inconclusive: 31.6 µM [inhibitor, full curve, poor fit]
6 | Cc1cc(C)cc(NC(=O)Cn2c(=O)oc3cc(S(=O)(=O)N4CC(C)CC(C)C4)ccc32)c1 (stereo not given) | inactive: -6.84% | –
7 | COc1ccc(-c2nnc(Nc3nc4c(OC)cccc4s3)o2)cc1 | – | active: 44.7 µM
8 | CC(=O)n1c(=O)c2ccccc2c(=O)n1-c1ccccc1 | – | inconclusive: 56.2 µM [inhibitor, partial curve]
9 | COc1ccc(OCC(=O)OCC(=O)Nc2ccc3[nH]c(=O)[nH]c3c2)cc1 | inactive: -11.5% | –
10 | CN(CC(=O)Nc1c(Cl)cccc1Cl)C(=O)c1cccc(-n2cccc2)c1 | – | active: 50.1 µM
11 | Cc1nn(-c2ccccc2)c(C)c1C(=O)NCc1cccs1 | inactive: 1.53% | –
12 | O/C=c1\ccc2cccc3nc(C(F)(F)F)nc1c23 | – | active: 79.4 µM
13 | COc1ccc(OCCC(=O)N2CCCCC2)cc1 | – | inconclusive: 17.8 µM [inhibitor, full curve, poor fit]
14 | O=C(NCc1ccccc1)C(c1ccco1)N(C(=O)c1csnn1)c1ccccc1 (stereo not given) | – | inconclusive: 3.55 µM [inhibitor, partial curve, poor fit]
15 | COC(=O)C1=C(C(=O)OC)C(c2ccc(OC)c(OC)c2)c2sc(=O)[nH]c2S1 (stereo not given) | – | inconclusive: 56.2 µM [inhibitor, partial curve]
16 | CC1CCCN(C(=O)CSc2ncccn2)C1 (stereo not given) | – | inconclusive: 89.1 µM [inhibitor, single point]
17 | Cn1cccc1C(=O)Nc1ccc(Cl)c(S(=O)(=O)N2CCCCC2)c1 | – | inconclusive: 35.5 µM [inhibitor, single point]
18 | O=C(CCC(=O)N1CCN(S(=O)(=O)c2ccc(Cl)cc2)CC1)Nc1ccc2ccccc2c1 | inactive: -25.5% | –
19 | COc1ccc(-c2ccc(NC(=O)c3ccc(Br)o3)cc2)nn1 | – | inconclusive: 89.1 µM [inhibitor, partial curve]
20 | COc1ccc(-c2nnc3sc(-c4ccco4)nn23)cc1OC | inactive: 1.34% | –
21 | COc1cc2c(cc1OC)CN(C(=O)c1cccc([N+](=O)[O-])c1)CC2 | inactive: -14.7% | –
22 | CC1=NOC(=O)/C1=C\c1ccc(-c2cc(Cl)ccc2Cl)o1 | – | inconclusive: 31.6 µM [inhibitor, partial curve, poor fit]
23 | O=C(CSc1nnc(-c2ccco2)c(-c2ccco2)n1)Nc1ccccc1 | – | active: 35.5 µM

Row | SMILES | activity change, negative = inhibition | Potency
24 | O=C(CCN1CCCC1Cc1ccccc1)c1ccc2c(c1)OCCO2 (stereo not given) | – | active: 56.2 µM
25 | CC(NC(=O)CCN1C(=O)c2ccccc2S1(=O)=O)c1ccccc1 (stereo not given) | inactive: -7.79% | –
26 | CCn1cc(C(=O)O)c(=O)c2cc(F)c(N3CCN(S(=O)(=O)c4ccc(NC(C)=O)cc4)CC3)cc21 | – | inconclusive: 89.1 µM [inhibitor, single point]
27 | C=CCOc1ccc(/C=C2/C(=O)ON=C2C)cc1OC | – | inconclusive: 56.2 µM [inhibitor, partial curve]
28 | Cc1ccc(-c2nn(-c3ccc(F)cc3)cc2C(=O)NCC2CCCO2)cc1 (stereo not given) | – | inconclusive: 79.4 µM [inhibitor, single point]
29 | C[C@@H]1CC[C@]2(C(=O)O[C@@H]3O[C@H](CO)[C@@H](O)[C@H](O)[C@H]3O)CC[C@]3(C)C(=CCC4[C@@]5(C)CC[C@H](O[C@@H]6OC[C@H](O)[C@H](O[C@@H]7O[C@H](CO)[C@@H](O)[C@H](O)[C@H]7O)[C@H]6O)C(C)(C)C5CC[C@]43C)C2[C@]1(C)O (stereo not given in full) | inactive: -1.86% [at 11.6 µM] | –
30 | Cc1cccc(NS(=O)(=O)c2cc(C(=O)NCc3ccccn3)ccc2C)c1 | inactive: -4.03% | –
31 | O=C(Cc1csc(N2CCOCC2)n1)N/N=C/c1ccc(O)c(O)c1O | – | active: 22.4 µM
32 | CC(C)Cc1cc(C(=O)N2CCC(N3CCC(C(=O)NC4CC4)CC3)CC2)n[nH]1 | – | inconclusive: 25.1 µM [inhibitor, single point]
33 | COc1ccc(-n2nc3c(=O)[nH][nH]c3cc2=O)cc1 | – | inconclusive: 56.2 µM [inhibitor, partial curve]
34 | CC1CCc2c(sc3nc(SCC(=O)NCc4ccco4)nc(N)c23)C1 (stereo not given) | inconclusive: -39.4% [inhibitor] [at 57.1 µM] | –
35 | S=c1[nH]c(-c2ccccc2)cn1/N=C/c1ccncc1 | – | inconclusive: 39.8 µM [inhibitor, single point]
36 | O=C1NN(c2ccccc2)C(=O)/C1=C/c1ccc(-c2ccc(Cl)c(C(=O)O)c2)o1 | – | active: 35.5 µM
37 | Cc1ccc(N2C(=O)[C@@H]3[C@H](C2=O)C2c4ccccc4C=CN2[C@@H]3C(=O)c2ccco2)c(C)c1 (stereo not given in full) | inactive: -28% | –
38 | O=C(O)CC/C(=N\Nc1ccc([N+](=O)[O-])cc1)c1ccccc1 | – | inconclusive: 3.55 µM [inhibitor, full curve, poor fit]
39 | Cn1c(CCCNC(=O)c2ccco2)nc2ccccc21 | inactive: -29.9% | –
40 | Cc1ccc(NC(=O)c2cnccn2)cc1S(=O)(=O)N1CCCCCC1 | – | inconclusive: 25.1 µM [inhibitor, full curve, poor fit]
41 | COc1cccc(-c2nnc(SCC3CNC(=O)O3)n2-c2ccc(Cl)cc2)c1 (stereo not given) | – | inconclusive: 25.1 µM [inhibitor, single point]
42 | Nc1cc2c(cc1Cl)-c1ccc([N+](=O)[O-])cc1C2=NO | inactive: 1.66% | –
43 | O=C(NC1CCCCCCC1)c1cc(-c2ccccn2)nc2ccccc12 | inactive: 9.25% | –
44 | COc1ccc(C(=O)NCc2ncccc2C)cc1OC1CCN(C(C)=O)CC1 | inactive: -3.52% | –
45 | Cn1c(SCC(=O)c2ccc(O)c(O)c2)nnc1-c1cccs1 | – | inconclusive: 50.1 µM [inhibitor, partial curve]

Entries 24 to 25 from above:
Row | SMILES | activity change, negative = inhibition | Potency
24 | O=C(CCN1CCCC1Cc1ccccc1)c1ccc2c(c1)OCCO2 (stereo not given) | – | active: 56.2 µM
25 | CC(NC(=O)CCN1C(=O)c2ccccc2S1(=O)=O)c1ccccc1 (stereo not given) | inactive: -7.79% | –
